From patent US20250197491A1
Results are given in words; binding and its absence hold for the method and conditions named. Some results given as binding are weak or reduced against the parent protein; the word gives no strength. Values belong to the binder of their own block, whether it stands above or below them.

Protein sequences, listed by entry. Tags and fused reporters are not part of them. Lines headed by an entry give the natural chain unless they say otherwise; changes in a name come on top. Residues count along the entry.
UniProt Q8N6C8: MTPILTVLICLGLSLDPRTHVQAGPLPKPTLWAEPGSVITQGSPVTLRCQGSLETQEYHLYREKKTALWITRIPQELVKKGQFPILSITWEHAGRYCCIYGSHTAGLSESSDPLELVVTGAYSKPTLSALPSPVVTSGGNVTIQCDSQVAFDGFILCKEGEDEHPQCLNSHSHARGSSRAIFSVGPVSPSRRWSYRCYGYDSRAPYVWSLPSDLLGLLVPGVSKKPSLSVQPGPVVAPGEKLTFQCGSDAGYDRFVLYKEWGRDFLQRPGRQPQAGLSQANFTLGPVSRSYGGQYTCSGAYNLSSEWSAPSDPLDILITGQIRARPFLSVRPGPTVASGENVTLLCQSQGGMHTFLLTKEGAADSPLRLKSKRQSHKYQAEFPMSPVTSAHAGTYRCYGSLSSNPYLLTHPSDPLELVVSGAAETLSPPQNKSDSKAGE
UniProt Q8NHL6, residues 24-461: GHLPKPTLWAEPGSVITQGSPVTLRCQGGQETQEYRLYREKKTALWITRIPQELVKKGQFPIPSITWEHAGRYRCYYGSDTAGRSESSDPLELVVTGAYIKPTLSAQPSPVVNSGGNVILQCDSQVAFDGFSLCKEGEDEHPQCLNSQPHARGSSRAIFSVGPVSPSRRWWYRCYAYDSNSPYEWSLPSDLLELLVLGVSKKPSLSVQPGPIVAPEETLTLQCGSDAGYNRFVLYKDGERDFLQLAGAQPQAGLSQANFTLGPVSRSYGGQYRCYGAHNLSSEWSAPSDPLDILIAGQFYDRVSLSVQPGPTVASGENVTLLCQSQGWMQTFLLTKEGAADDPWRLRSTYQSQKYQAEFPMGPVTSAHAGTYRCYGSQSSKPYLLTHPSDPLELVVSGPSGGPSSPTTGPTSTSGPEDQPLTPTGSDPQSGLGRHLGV

Assays:
[1] = biological target: Human full length LILRA3 (human) (UniProt Q8N6C8); experiment: ELISA, antigen coated
[2] = biological target: human LILRB1 (coated on plates in the competition ELISA) (human) (UniProt Q8NHL6); experiment: competition ELISA on coated human LILRB1; competitor 5 nM biotinylated Antibody 2

binding [1]: no binding (tested: 10 nM)
B1: Reference Antibody 1 (anti-human LILRB1 Ab) (antibody, V domains shown)
VH: DVQLQGSGPGLVKPSETLSLTCSVTGYSITSGYYWNWIRQFPGKKLEWMGYISYDGSNNYNPSLKNRITISRDTSKNQFSLKLNSVTAADTATYYCAHGYSYYYAMDAWGQGTSVTVSS
VL: DIQMTQSPSSLSASVGDRVTITCRTSQDISNYLNWYQQKPGKAVKLLISYTSRLHSGVPSRFSGSGSGTDYTLTISSLQPEDFATYYCQQGNTLPTFGQGTKLEIK

binding [2]: binds
B2: Antibody 2 (antibody, V domains shown)
VH: QVQLVESGGDLVKPGGSLRLSCAASGFTFRDYYMSWIRQAPGKGLEWVSYISPSGSTIFYADSVKGRFTISRDNAKNSLYLQMNSLRAEDTAVYYCAKDRVRLFDYWGQGTLVTVSS
VL: EIVLTQSPATLSLSPGERATLSCRASQSVSSSYLAWYQQKPGQAPRLLIYGASTRATGIPARFSGSGSGTDFTLTISRLEPEDFAVYYCQQRSNWPITFGQGTRLEIK
